# According to publication PMC4495710:
# No constants are given. Whether binding was seen depends on the method and setting. In cells and extracts the contact can be indirect. Some binding calls cover weakened binding; strength is not graded here.
# T1: scavenger receptor A (human (endogenous in THP-1)) (UniProt P21757)
# T1 sequence: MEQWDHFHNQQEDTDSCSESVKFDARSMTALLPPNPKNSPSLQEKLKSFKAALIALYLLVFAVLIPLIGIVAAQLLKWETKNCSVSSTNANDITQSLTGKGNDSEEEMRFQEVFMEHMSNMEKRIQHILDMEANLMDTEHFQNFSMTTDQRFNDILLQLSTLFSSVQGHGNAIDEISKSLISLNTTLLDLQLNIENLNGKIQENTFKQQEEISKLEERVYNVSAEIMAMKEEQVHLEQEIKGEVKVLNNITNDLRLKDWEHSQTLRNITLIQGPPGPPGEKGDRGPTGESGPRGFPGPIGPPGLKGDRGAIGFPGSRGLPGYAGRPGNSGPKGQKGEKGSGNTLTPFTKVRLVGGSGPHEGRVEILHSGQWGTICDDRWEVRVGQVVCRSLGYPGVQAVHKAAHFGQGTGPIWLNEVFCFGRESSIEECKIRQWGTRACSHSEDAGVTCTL
# B1: wnt1 (ligand, UniProt P04628 28-370)
# chain: ANSSGRWWGIVNVASSTNLLTDSKSLQLVLEPSLQLLSRKQRRLIRQNPGILHSVSGGLQSAVRECKWQFRNRRWNCPTAPGPHLFGKIVNRGCRETAFIFAITSAGVTHSVARSCSEGSIESCTCDYRRRGPGGPDWHWGGCSDNIDFGRLFGREFVDSGEKGRDLRFLMNLHNNEAGRTTVFSEMRQECKCHGMSGSCTVRTCWMRLPTLRAVGDVLRDRFDGASRVLYGNRGSNRASRAELLRLEPEDPAHKPPSPHDLVYFEKSPNFCTYSGRLGTAGTAGRACNSSSPALDGCELLCCGRGHRTRTQRVTERCNCTFHWCCHVSCRNCTHTRVLHECL
# Biological target: T1, scavenger receptor A (human (endogenous in THP-1))
# Assay: co-IP; THP-1 cell lysate in RIPA buffer, protein A/G agarose, 4 °C overnight; blot with anti-wnt1 or anti-SRA; cells with or without LPS; the methods name anti-p65 as the precipitating antibody
binder,measurement,value
B1,binding,binds
